{
  "source": "paper PMC6422396",
  "biological_target": "Toh1-YFP hybrid protein (full size Toh1 fused to YFP) (S. cerevisiae) (UniProt P46992)",
  "test": "SDD-AGE; semi-denaturing detergent agarose gel electrophoresis; extracts treated 10 min with 1% SDS at room temperature or boiled with SDS; Western blot with antibody to GFP",
  "note": "Results are given in words; binding and its absence hold for the method and conditions named. Some results given as binding are weak or reduced against the parent protein; the word gives no strength. Where a sequence is shown, tags or fusion partners need not be part of it.",
  "data": [
    {"binder": "Toh1-YFP hybrid protein (full size Toh1 fused to YFP) (protein, UniProt P46992 20-368) SGPQSYQKLDFTNVGFTGSYVDVNKFKDITNNESCTCEVGDRVWFSGKNAPLADYLSVHFRGPLKLKQFAFYTSPGFTVNNSRSSSDWNRLAYYESSSKTADNVTFLNHGGEASPCLGNALSYASSNGTGSASEATVLADGTLISSDQEYIIYSNVSCPKSGYDKGCGVYRSGIPAYYGYGGTTKMFLFEFEMPTETEKNSSSIGYYDLPAIWLLNDHIARTSQYPTNANCSCWASGCGEYDIFEAMNGTEKNHLYSTFHTFQGIEDLGTGIQSYGYITRNTTGTMKGGVVFDSSGNVVSFISDATPFNGTVSADTVNDLLAAIPENETYSSQLMSISATAPSTTSKSN", "values": [
      {"measurement": "binding", "value": "binds"}
    ]}
  ]
}
